PubChem BioAssay AID1259425 | University of Nebraska Medical Center, 2018
Screen: 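Compare each knockdown with KSR1 silencing using changes in marker transcripts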 (primary screen). Cells: HCT116 human colon cancer cells. Reagents: siRNA pool against human genes, 50 nM siRNA. Detection: 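After 50 nM siRNA pool, branched-DNA assay measures six marker transcripts per well, minus blank, normalised to the geometric mean of two housekeeping transcripts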. Direction: BNIP3L mRNA: higher = more BNIP3L transcript after knockdown; NDRG1 mRNA: higher = more NDRG1 transcript after knockdown.
In all, the deposit lists about 14,000 reagents; this is a random part of them. Not all columns of the deposit are shown. Not given: the time to read-out.

ATAT1 (alpha tubulin acetyltransferase 1) gave BNIP3L mRNA, set 1 = 0.133; NDRG1 mRNA, set 1 = 0.309.
Against NFKBID (NFKB inhibitor delta) the deposit lists BNIP3L mRNA, set 1 = 0.0972; NDRG1 mRNA, set 1 = 0.131.
For HMGN1 (high mobility group nucleosome binding domain 1), the entry reads BNIP3L mRNA, set 1 = 0.162; NDRG1 mRNA, set 1 = 0.1.
For YEATS2 (YEATS domain containing 2), the entry reads BNIP3L mRNA, set 1 = 0.192; NDRG1 mRNA, set 1 = 0.305.
Silencing of DPP10 (dipeptidyl peptidase like 10) resulted in: BNIP3L mRNA, set 1 = 0.105; NDRG1 mRNA, set 1 = 0.151.
HDHD2 (haloacid dehalogenase like hydrolase domain containing 2) gave BNIP3L mRNA, set 1 = 0.0564; NDRG1 mRNA, set 1 = 0.243.
Against NKX6-2 (NK6 homeobox 2), the values are BNIP3L mRNA, set 1 = 0.271; NDRG1 mRNA, set 1 = 0.526.
Against PBK (PDZ binding kinase), the values are BNIP3L mRNA, set 1 = 0.128; NDRG1 mRNA, set 1 = 0.238.
Against CDH18 (cadherin 18) the deposit lists BNIP3L mRNA, set 1 = 0.118; NDRG1 mRNA, set 1 = 0.166.
FAM120A (family with sequence similarity 120 member A) gave BNIP3L mRNA, set 1 = 0.041; NDRG1 mRNA, set 1 = 0.216.
For SLC67A2, the values are BNIP3L mRNA, set 1 = 0.109; NDRG1 mRNA, set 1 = 0.256.
With knock-down of NUP37 (nucleoporin 37) the results were BNIP3L mRNA, set 1 = 0.0857; NDRG1 mRNA, set 1 = 0.0936.
For RPRD1A (regulation of nuclear pre-mRNA domain containing 1A), the entry reads BNIP3L mRNA, set 1 = 0.0491; NDRG1 mRNA, set 1 = 0.155.
CDK5RAP2 (CDK5 regulatory subunit associated protein 2) gave BNIP3L mRNA, set 1 = 0.11; NDRG1 mRNA, set 1 = 0.443.
RBMY1A1 (RNA binding motif protein Y-linked family 1 member A1) gave BNIP3L mRNA, set 1 = 0.124; NDRG1 mRNA, set 1 = 0.141.
For CKMT1B (creatine kinase, mitochondrial 1B), the entry reads BNIP3L mRNA, set 1 = 0.191; NDRG1 mRNA, set 1 = 0.133.
After knock-down of ABCB9 (ATP binding cassette subfamily B member 9), the screen gave BNIP3L mRNA, set 1 = 0.137; NDRG1 mRNA, set 1 = 0.853.
TATDN1 (TatD DNase domain containing 1) showed BNIP3L mRNA, set 1 = 0.436; NDRG1 mRNA, set 1 = 0.346.
For TPM2 (tropomyosin 2), the values are BNIP3L mRNA, set 1 = 0.15; NDRG1 mRNA, set 1 = 0.106.
SERPINB3 (serpin family B member 3) scored BNIP3L mRNA, set 1 = 0.102; NDRG1 mRNA, set 1 = 0.29.
For PLIN1 (perilipin 1) the deposit lists BNIP3L mRNA, set 1 = 0.0755; NDRG1 mRNA, set 1 = 0.222.
With knock-down of LIMS1 (LIM zinc finger domain containing 1), the screen gave BNIP3L mRNA, set 1 = 0.0701; NDRG1 mRNA, set 1 = 0.239.
With knock-down of POLR3B (RNA polymerase III subunit B), the screen gave BNIP3L mRNA, set 1 = 0.239; NDRG1 mRNA, set 1 = 1.2.
With knock-down of OR1Q1 (olfactory receptor family 1 subfamily Q member 1), the screen gave BNIP3L mRNA, set 1 = 0.229; NDRG1 mRNA, set 1 = 0.376.
Depletion of CD8A (CD8 subunit alpha) gave: BNIP3L mRNA, set 1 = 0.076; NDRG1 mRNA, set 1 = 0.0997.
Against CNR2 (cannabinoid receptor 2), the values are BNIP3L mRNA, set 1 = 0.065; NDRG1 mRNA, set 1 = 0.157.
Knock-down of HOXB2 (homeobox B2) gave: BNIP3L mRNA, set 1 = 0.128; NDRG1 mRNA, set 1 = 0.263.
For LTF (lactotransferrin) the deposit lists BNIP3L mRNA, set 1 = 0.108; NDRG1 mRNA, set 1 = 0.0952.

Limited to “NDRG1 mRNA, set 1” (4 entries from above):
PBK (PDZ binding kinase): 0.238
CDH18 (cadherin 18): 0.166
FAM120A (family with sequence similarity 120 member A): 0.216
SLC67A2: 0.256
